{"source": "the supplement of paper PMC3334620", "note": "Whole data set: some 33,000 sequences, median “E-score (-0.5 to 0.5)” near -0.016, cut for the highest 2% near 0.3. This is one part of the list."}
{"target": "T1, Yer184c (UniProt P39961)", "T1 sequence": "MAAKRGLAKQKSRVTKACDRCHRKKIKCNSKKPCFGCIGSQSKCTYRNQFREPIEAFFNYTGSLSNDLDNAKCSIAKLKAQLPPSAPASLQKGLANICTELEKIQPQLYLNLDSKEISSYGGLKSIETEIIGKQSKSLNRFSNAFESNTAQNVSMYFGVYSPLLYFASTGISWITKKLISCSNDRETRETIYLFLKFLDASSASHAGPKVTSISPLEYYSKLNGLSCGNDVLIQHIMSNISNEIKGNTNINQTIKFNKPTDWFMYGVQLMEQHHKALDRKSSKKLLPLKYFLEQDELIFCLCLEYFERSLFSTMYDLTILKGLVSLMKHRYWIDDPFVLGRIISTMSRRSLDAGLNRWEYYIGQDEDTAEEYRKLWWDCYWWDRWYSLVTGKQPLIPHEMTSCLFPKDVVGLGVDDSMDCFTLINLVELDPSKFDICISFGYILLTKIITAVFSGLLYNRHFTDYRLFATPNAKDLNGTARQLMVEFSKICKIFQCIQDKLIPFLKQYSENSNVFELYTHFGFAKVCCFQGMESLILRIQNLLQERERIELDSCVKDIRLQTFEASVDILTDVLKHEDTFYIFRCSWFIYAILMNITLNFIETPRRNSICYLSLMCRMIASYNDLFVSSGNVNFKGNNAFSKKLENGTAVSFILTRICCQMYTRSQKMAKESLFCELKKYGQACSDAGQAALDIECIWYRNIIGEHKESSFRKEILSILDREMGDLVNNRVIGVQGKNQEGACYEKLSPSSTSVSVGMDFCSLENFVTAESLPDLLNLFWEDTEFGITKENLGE", "assay": "PBM E-score (8-mer binding enrichment) (E-score (-0.5 to 0.5)); higher = stronger / more preferred TF binding", "settings": "protein concentration: 100 nM; construct: GST-full length", "outline": "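Detection of bound protein used fluorescent anti-GST, with scans normalised by masliner. The proteins were GST-tagged yeast transcription factors applied at about 100-200 nM to universal all-10-mer Agilent arrays made double-stranded by primer extension. Each ungapped eight-base word, pooled with its reverse complement, was scored with an E-score from the Universal PBM Analysis Suite.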"}
{"sequence": "AGGGCAAG", "PBM E-score": -0.0444}
{"sequence": "ATACGATG", "PBM E-score": -0.0137}
{"sequence": "GAGCGAGC", "PBM E-score": 0.102}
{"sequence": "ACGTATGG", "PBM E-score": -0.113}
{"sequence": "ACTTCAAG", "PBM E-score": -0.0326}
{"sequence": "ACTGTCTA", "PBM E-score": -0.0497}
{"sequence": "CACAGCCC", "PBM E-score": -0.192}
{"sequence": "GTGAAGGA", "PBM E-score": -0.0595}
{"sequence": "CAAACCGA", "PBM E-score": 0.117}
{"sequence": "ATGAACAC", "PBM E-score": 0.125}
{"sequence": "GCAAAGAA", "PBM E-score": 0.171}
{"sequence": "AAAAATTT", "PBM E-score": 0.297}
{"sequence": "ACGAAAAT", "PBM E-score": 0.163}
{"sequence": "AGGCTTGG", "PBM E-score": -0.204}
{"sequence": "AACCCGCA", "PBM E-score": -0.0626}
{"sequence": "AGAAAGTC", "PBM E-score": 0.133}
{"sequence": "ATAAATCG", "PBM E-score": 0.178}
{"sequence": "GAGTCGAC", "PBM E-score": -0.0678}
{"sequence": "ACATAGTC", "PBM E-score": -0.111}
{"sequence": "ACTCTCAG", "PBM E-score": -0.161}
{"sequence": "CGTCGACA", "PBM E-score": -0.035}
{"sequence": "ACCCTGCT", "PBM E-score": -0.261}
{"sequence": "GACAAGCC", "PBM E-score": -0.00546}
{"sequence": "GGTCAGAA", "PBM E-score": 0.094}
{"sequence": "CCGGAAAC", "PBM E-score": 0.396}
{"sequence": "GGAATTAA", "PBM E-score": 0.189}
{"sequence": "CATACAAG", "PBM E-score": -0.097}
{"sequence": "CCATGAGC", "PBM E-score": -0.229}
{"sequence": "ATGTGTTG", "PBM E-score": 0.158}
{"sequence": "CTCCGAAC", "PBM E-score": 0.323}
{"sequence": "GACTGGGA", "PBM E-score": -0.179}
{"sequence": "ATAGCGAG", "PBM E-score": -0.0798}
{"sequence": "GACAGGGC", "PBM E-score": -0.154}
{"sequence": "CTCCCAAC", "PBM E-score": -0.149}
{"sequence": "ACTCAGCA", "PBM E-score": 0.0401}
{"sequence": "AGGTCAAA", "PBM E-score": -0.156}
{"sequence": "CTCGTCGC", "PBM E-score": -0.186}
{"sequence": "ACCTGTGC", "PBM E-score": -0.172}
{"sequence": "GGTTGCTA", "PBM E-score": -0.0171}
{"sequence": "CGAGTGAG", "PBM E-score": 0.125}
{"sequence": "GTCTTCGA", "PBM E-score": 0.0694}
{"sequence": "TCTCCAGA", "PBM E-score": -0.109}
{"sequence": "AAGAGTGA", "PBM E-score": -0.0962}
{"sequence": "CTACCAAA", "PBM E-score": 0.0165}
{"sequence": "AGAACACT", "PBM E-score": -0.032}
{"sequence": "GCGTCATA", "PBM E-score": 0.152}
{"sequence": "TGCTCCCA", "PBM E-score": "1e-05"}
{"sequence": "GGGTGCCA", "PBM E-score": -0.125}
{"sequence": "CTAGGTCC", "PBM E-score": -0.0874}
{"sequence": "AGCCACCG", "PBM E-score": -0.0082}
{"sequence": "GAACACCC", "PBM E-score": -0.0175}
{"sequence": "GCGACAGA", "PBM E-score": -0.055}
{"sequence": "TTGTACAA", "PBM E-score": 0.149}
{"sequence": "AGGTAAAA", "PBM E-score": 0.0579}
{"sequence": "CTACAAAA", "PBM E-score": 0.171}
{"sequence": "GCAGCTGA", "PBM E-score": -0.0334}
{"sequence": "AATCTTTG", "PBM E-score": 0.108}
{"sequence": "AGTAAAGA", "PBM E-score": -0.0721}
{"sequence": "AATTTATC", "PBM E-score": 0.29}
{"sequence": "ACCTGGAC", "PBM E-score": -0.276}
{"sequence": "CTAGATAC", "PBM E-score": 0.118}
{"sequence": "AATCGGAG", "PBM E-score": 0.216}
{"sequence": "CAAGACAA", "PBM E-score": 0.182}
{"sequence": "AAAACTAT", "PBM E-score": 0.158}
{"sequence": "GAAAGGCC", "PBM E-score": -0.0612}
{"sequence": "GGGAACCA", "PBM E-score": -0.222}
{"sequence": "CTGGTACA", "PBM E-score": -0.0797}
{"sequence": "GGGGACTA", "PBM E-score": -0.3}
{"sequence": "CAAAACAG", "PBM E-score": 0.0555}
{"sequence": "AACTGTTG", "PBM E-score": -0.205}
{"sequence": "GATTCCCC", "PBM E-score": -0.111}
{"sequence": "GAAGTCGA", "PBM E-score": 0.0273}
{"sequence": "ATGGTTTG", "PBM E-score": 0.0299}
{"sequence": "ATAGCAGA", "PBM E-score": -0.0688}
{"sequence": "AAGCCGCA", "PBM E-score": 0.161}
{"sequence": "AGCCAAGC", "PBM E-score": -0.117}
{"sequence": "GCTCTCAA", "PBM E-score": 0.0851}
{"sequence": "CTCGTAAG", "PBM E-score": 0.135}
{"sequence": "GCATGTAC", "PBM E-score": -0.15}
{"sequence": "GGTGAGCA", "PBM E-score": -0.236}
{"sequence": "CATAGCAA", "PBM E-score": -0.0697}
{"sequence": "GCGGTGGA", "PBM E-score": 0.00643}
{"sequence": "AGGCGGAT", "PBM E-score": -0.0122}
{"sequence": "CCTTACTC", "PBM E-score": 0.0738}
{"sequence": "ATTGCGAC", "PBM E-score": 0.133}
{"sequence": "CACTTCTC", "PBM E-score": -0.119}
